This note sets out measurements from patent US20120108796A1.

By UniProt entry, the sequences of proteins in these tests, tags left out. Residues count along the entry.
UniProt P10646, residues 29-304: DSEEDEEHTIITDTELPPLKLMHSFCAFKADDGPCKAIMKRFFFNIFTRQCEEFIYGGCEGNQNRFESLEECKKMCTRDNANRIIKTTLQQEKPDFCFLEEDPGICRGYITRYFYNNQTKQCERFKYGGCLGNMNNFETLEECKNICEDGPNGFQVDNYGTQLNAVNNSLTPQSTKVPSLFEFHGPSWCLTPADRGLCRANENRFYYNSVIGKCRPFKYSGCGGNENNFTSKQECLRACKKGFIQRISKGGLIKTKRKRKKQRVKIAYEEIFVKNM
UniProt O54819, residues 29-289: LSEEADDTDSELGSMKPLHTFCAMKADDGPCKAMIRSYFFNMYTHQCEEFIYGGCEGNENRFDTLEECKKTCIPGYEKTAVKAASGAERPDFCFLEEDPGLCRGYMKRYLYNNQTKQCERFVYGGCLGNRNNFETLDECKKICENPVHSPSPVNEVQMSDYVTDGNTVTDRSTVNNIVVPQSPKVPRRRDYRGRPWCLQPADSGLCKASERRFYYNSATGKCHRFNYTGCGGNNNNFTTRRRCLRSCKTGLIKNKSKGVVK

The chains are these.
B1: 2A8 HC G33P (Fab, V domains shown)
VH: QVQLVESGGGLVQPGGSLRLSCAASGFTFRSYPMSWVRQAPGKGLEWVSSIRGSSSSTYYADSVKGRFTISRDNSKNTLYLQMNSLRAEDTAVYYCARKYRYWFDYWGQGTLVTVSS
VL: DIELTQPPSVSVAPGQTARISCSGDNLRNYYAHWYQQKPGQAPVVVIYYDNNRPSGIPERFSGSNSGNTATLTISGTQAEDEADYYCQSWDDGVPVFGGGTKLTVLG
B2: 2A8 LC Y48F (Fab, V domains shown)
VH: B1 VH with P33G
VL: B1 VL with Y48F
B3: 2A8 HC I51D (Fab, V domains shown)
VH: B1 VH with P33G, I51D
VL: B1 VL
B4: 2A8 HC S31V (Fab, V domains shown)
VH: B1 VH with S31V, P33G
VL: B1 VL
B5: 2A8-200 (Fab, V domains shown)
VH: B1 VH with P33G, S35D, S55R, K99L
VL: B1 VL with Y48F, N51V, D91W
B6: 2A8 HC S31P (Fab, V domains shown)
VH: B1 VH with S31P, P33G
VL: B1 VL
B7: 2A8 HC K99V (Fab, V domains shown)
VH: B1 VH with P33G, K99V
VL: B1 VL
B8: 2A8 HC S54F (Fab, V domains shown)
VH: B1 VH with P33G, S54F
VL: B1 VL
B9: 2A8-127 (Fab, V domains shown)
VH: B1 VH with P33G, S35D, K99L
VL: B1 VL with Y48F, N51V, G56D, V96W
B10: 2A8-216 (Fab, V domains shown)
VH: B1 VH with S31V, P33G, I51D, S55R, K99V
VL: B1 VL with Y48F, D91L, V96W
B11: 2A8-g216 (Fab, V domains shown)
VH: B1 VH with S31V, P33G, I51D, S55R, K99V
VL: SYELTQPPSVSVSPGQTARITCSGDNLPKYYAHWYQQKPGQAPVVVIFYDSNRPSGIPERFSGSNSGNTATLTISGTQAMDEADYYCQSWLSGTPWFGGGTKLTVLG
B12: 2A8 LC D91K (Fab, V domains shown)
VH: B1 VH with P33G
VL: B1 VL with D91K
B13: 2A8 HC S55R (Fab, V domains shown)
VH: B1 VH with P33G, S55R
VL: B1 VL
B14: 2A8 HC S35D (Fab, V domains shown)
VH: B1 VH with P33G, S35D
VL: B1 VL
B15: 2A8-143 (Fab, V domains shown)
VH: B1 VH with P33G, S35D, S55R, K99L
VL: B1 VL with Y48F, N51V, D91L, V96W
B16: 2A8 LC A32N (Fab, V domains shown)
VH: B1 VH with P33G
VL: B1 VL with A32N
B17: 2A8 LC N51V (Fab, V domains shown)
VH: B1 VH with P33G
VL: B1 VL with N51V
B18: 2A8 LC D91W (Fab, V domains shown)
VH: B1 VH with P33G
VL: B1 VL with D91W
B19: 2A8 LC D91L (Fab, V domains shown)
VH: B1 VH with P33G
VL: B1 VL with D91L
B20: 2A8-227 (Fab, V domains shown)
VH: B1 VH with P33G, S35D, K99L
VL: B1 VL with Y48F, D91L, V96W
B21: 2A8-g200 (Fab, V domains shown)
VH: B1 VH with Q1E, R30S, P33G, S35D, S55R, S56G, K99L
VL: B11 VL with S51V, S89A, L91W, G93S, W96V
B22: 2A8 HC K99L (Fab, V domains shown)
VH: B1 VH with P33G, K99L
VL: B1 VL
B23: 2A8 HC I51E (Fab, V domains shown)
VH: B1 VH with P33G, I51E
VL: B1 VL
B24: 4B7 HC D62R (Fab, V domains shown)
VH: QVQLQQSGPGLVKPSQTLSLTCAISGDSVSSNSAAWSWIRQSPGRGLEWLGIIYKRSKWYNRYAVSVKSRITINPDTSKNQFSLQLNSVTPEDTAVYYCARWHSDKHWGFDYWGQGTLVTVSS
VL: DIVMTQSPLSLPVTPGEPASISCRSSQSLVFSDGNTYLNWYLQKPGQSPQLLIYKGSNRASGVPDRFSGSGSGTDFTLKISRVEAEDVGVYYCQQYDSYPLTFGQGTKVEIKR
B25: B2.0 (Fab, V domains shown)
VH: B24 VH with N32D, Y112D
VL: B24 VL with S32R, D33F, N35I, D97T
B26: gB9.7-IgG (antibody, V domains shown)
VH: B24 VH with N32D, G44S, K55Y, Y112D
VL: B24 VL with S32R, N35I
B27: B32.5 (Fab, V domains shown)
VH: B24 VH with Y112D
VL: B24 VL with D33F, N35I
B28: B41.2 (Fab, V domains shown)
VH: B24 VH with N32D, Y112D
VL: B24 VL with S32R, D33F, N35I
B29: B27.1 (Fab, V domains shown)
VH: B24 VH with N32D, Y112D
VL: B24 VL with N35T, D97T
B30: gB9.7 (Fab, V domains shown)
VH: B24 VH with Q1E, N32D, G44S, K55Y, Y112D
VL: B24 VL with S32R, N35I
B31: B9.7 (Fab, V domains shown)
VH: B24 VH with N32D, Y112D
VL: B24 VL with S32R, N35I
B32: B18.5 (Fab, V domains shown)
VH: B24 VH with N32D, R62Q, Y112D
VL: B24 VL with F31I, D33F, N35I

Positions count from the first letter of the chain named. In names and notes the source's numbering stands. Results are given in words; binding and its absence hold for the method and conditions named. Some binding calls cover weakened binding; strength is not graded here.

One test deals with human TFPI (tissue factor pathway inhibitor) (human) (UniProt P10646). Description: SPR (Biacore).
On to B1, for which the binding result is on record as “binds”.
For the molecule B2, the binding result is “binds”.
For B3, the binding result is listed as “binds”.
In the case of B4, the binding entry is on record as “binds”.
On to B5, for which the binding entry is given as “binds”.
On to B6, for which the binding result is “binds”.
For B7, the binding result is given as “binds”.
Turning to B8, the binding result was “binds”.
Turning to B9, the binding entry was “binds”.
The same measure, in the same setting: the result for B10 reads “binds”; that for B11, “binds”.
For B12, the binding entry is recorded as “binds”.
Still for that read-out and setting: next, B13: “binds”; B14: “binds”.
For B15, the binding entry is “binds”.
Regarding B16, the binding result is reported as “binds”.
Still for that read-out and setting: the result for B17 reads “binds”.
Take B18: the binding entry is given as “binds”.
In the case of B19, the binding entry is “binds”.
Take B20: the binding entry is recorded as “binds”.
The same measure, in the same setting: next, B21: “binds”; B22: “binds”; B23: “binds”.
For B24, the binding entry was “binds”.
Consider B25, for which the binding result is “binds”.
On the same count and under the same terms, next, B26: “binds”.
The same measure, in the same setting: the result for B27 reads “binds”.
Turning to B28, the binding entry is recorded as “binds”.
In the case of B29, the binding result is “binds”.
As to B30, the binding result is given as “binds”.
Take B31: the binding result is “binds”.
With B32, the binding result is recorded as “binds”.

The target in another test is mouse TFPI (tissue factor pathway inhibitor) (mouse) (UniProt O54819). The test is described as follows: SPR (Biacore). On the technique in general: In SPR one partner is held on a chip, and binding of the other changes the refractive index at the surface.
As to B1, the binding entry is given as “binds”.
Turning to B4, the binding result is “binds”.
On the same count and under the same terms, next, B5: “binds”; B6: “binds”.
For the molecule B8, the binding entry is on record as “binds”.
For B9, the binding result is “binds”.
On to B10, for which the binding result is reported as “binds”.
Turning to B11, the binding entry was “binds”.
Regarding B14, the binding entry is reported as “binds”.
Regarding B15, the binding result is listed as “binds”.
Regarding B18, the binding result was “binds”.
Turning to B20, the binding entry was “binds”.
Turning to B21, the binding entry is recorded as “binds”.
With B22, the binding entry is “binds”.
With B24, the binding entry was “binds”.
Take B25: the binding entry is “binds”.
As for B26, the binding entry was “binds”.
Regarding B27, the binding entry was “binds”.
Regarding B28, the binding result is reported as “binds”.
Regarding B29, the binding entry is “binds”.
As for B30, the binding result is “binds”.
Regarding B31, the binding entry is recorded as “binds”.
Take B32: the binding result is on record as “binds”.
